The subject of the assay is CEM cells HIV-1 protection, formazan growth assay. Briefly: NCI AIDS Antiviral Assay. Summed up: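 Protection of CEM cells against HIV-1 was scored from cell growth (soluble formazan) across five concentrations, with parallel uninfected cells. Lack of protection may reflect toxicity.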

What is called EC50 is the concentration needed to bring the measured effect to its halfway point. Broadly, the IC50 is the point on the concentration scale where inhibition reaches its midpoint.

Turning to `CN[C@H]1CCc2cc(OC)c(OC)c(OC)c2-c2ccc(SC)c(=O)cc21`, the EC50 is above 200 nM. Also, under “measured here: growth of uninfected CEM cells”, the 50% inhibitory concentration (IC50) came to 1.38 nM.

Values taken from PubChem BioAssay AID179 (DTP/NCI, 2004).
